The text below walks through data of publication PMC13289029.

The chains are these.
B1: EzrA (protein, UniProt Q8DTQ3 1-574)
chain: MSSGIVLLIVAIVLVVIIAYLIAIIIRKRNDSLITKLEERKQNLFDLPVNDEIEEVKKLHLIGQSQTTFREWNQKWVDLSLNSFSDIENHIFEAENLNDTFNFIRAHSQINNIESQLNLAEEDIKAIREALAVLKEQEEKNSARVLHALEMYESLQASIEEGDSNFGITMPEIEKQLKNIEAEFSQFVTLNSSGDPVEASEILDRAEEHTIALGQMTEKIPAIVAKLEDDFPDQLDDLESGYRRLLEENYHFPEKNIEERFQEVREAIGNNSNELVSLDLDKAESENEAIQEKIDSLYDIFEREIRAHKNIVKSKKIIPAYLEHAKKNNEQLEAEIERLNHRYILNEKEELNVRDFNEEIASVEKDVLPIIENFDTQEKPFSVLEDKFDRAIKKLDLVEEGQLDVFNSLKNIENVEKTARQKLDSYINRLHAIKRFMEKRNLPGIPQDFLSVFFTTSAQLEALMDELNRARIHIETVNRMTEAATAAVENLEETAYRVVQNATLTEQLLQYSNRYRSFEPSVQESFDIALKLFETDYDYQGSFDEISYSLETVEPGVTDRFVSSYEKTRETIRF
B2: PknB (protein, UniProt Q8DVK1 1-616)
chain: MIQIGKLFAGRYRILQSIGRGGMADVYLANDLILDNEEVAIKVLRTNYQTDQVAVTRFQREARAMAELNHPNIVAIRDIGEEDGQQFLAMEYVDGADLKKYIQDHAPLSNAEVIRIMKEVLSAMTLAHQKGIIHRDLKPQNVLLTKDGTAKVTDFGIAVAFAETSLTQTNSMLGSVHYLSPEQARGSKATVQSDIYAMGIMLFEMLTGHIPYDGDSAVTIALQHFQKPLPSIIAENKNVPQALENVVIKATAKRLTDRYHSTQEMLQDLRTSLQPNRSRERKLVFSDASDTKPLPKLEQAAANSLAAQSLKNKTSNQDKVDHKSKPKTKPQPKPKKKRHFLARFFKIFFILVAIGIAVLTYLVLTKPSTVSVPDVSGDKLSTAKMIIRKSGLKVGDVQKIEDDNVGAGKVVRTNPSAGSKKREGSSVDIFVASAKGFKMEDYTGQDYKDAIDNLTNNYGVSRDSIVLKEVSSDDYSGGTVIGQSPKPGKTYHPSSDKKITLKVVKVTMPNLKNSTYEEAVSTLTAMGISSSRIKAYDASDYSSEISSPSSSSLVVGQSPYYGNTVSLSSNDDIILYVSTSGGSHSGSSSSESSNSEGTTSSEASTDSSSSATTTSH
B3: DivIVA (protein, UniProt Q8DVD4 1-271)
chain: MAITALEIKDKTFGTKMFGYNTQEVEEFLDIVVDDYEELVRTNREKDNRIKELEDKLGYFDEMKESLSQSVILAQETAEKVKLSANTESTNILNKATYESQQLVDAAKSKANQILRDATDEAKRIAVETEELKRQSRVFHQHLLSVVEGQLTLANSPEWTELLQPTAVYLQNSDAAFKEVVEQVLGEHVPDAADTEPIEVTRQFTPEEMEELHRRVSESNKELEETKAGQSTVDDQQPLIIEAADETKVNESADEQPNLNETQTFKLNINE
B4: OpuCa (protein, UniProt Q8DRU8 1-383)
chain: MDKDPVIEFKEVNKIYGDNVAVKHINLKIMAGEFVCLIGTSGSGKTTILRMINRMLKPSNGKIFIKGEEISDLNPVQLRRKIGYVIQNIGLMPHMTIYENITLVPKLLKWSEDKKKAKAKELIKLVELPEDFLDRYPYELSGGQQQRIGVVRALAADQDIILMDEPFGALDPITREGLQDLVKSLQEKTGKTIVLVTHDMDEALKLATKIVVMDKGHMVQQANPTELLRHPATAFVKKMIGEDRLIQARADVTPVKNIMLKDPVSIAPDKSLNDAISLMRQKRVDSLLVTDKDNKLLGMIDVESLNNNYKQNLVVADILNKISFYLEEDQLLRDTAHRILKRGLKYVPVIDKEWHLKGIVTRSSLVDMLYDIIWGNQDTEETL
B5: FtsA (protein, UniProt Q8DVE0 1-453)
chain: MARDGFFTGLDIGTSSIKVLVAEFINGSMNVIGVSNVKSSGVKDGIIIDIDTAAEAIKSAIKEAEEKAGMSISKVNVGLPANLLQIEPTQGMIPVPSESKEIKDEDVDSVVRSALTKSITPEREVISLIPEEFIVDGFQGIRDPRGMMGIRLEMRGLIYTGPSTILHNLRKTVERAGIEVENIIISPLALTKSVLNEGEREFGATVIDMGGGQTTVASMRAQELQFTNTYAEGGDYVTKDISKVLKTSHQVAEALKFNFGEANVAEASSTETVQVEVVGERNPVEITERYLSEIISARVRHLLDRIKQDLERGRLLDLPGGIVIVGGAAIMPGVVEIAQEIFGFNVKLHVPNQVGIRNPMFANIISIVEYVGTLTEVDILAQGAVSGDEKLRRKPIDIKPSGVAPKTRSFAQPQESTTLESQLEQLPPQQKEANEPKQKVGDRLRGIFGSMFD
B6: MltG (protein, UniProt Q8DSP6 1-614)
chain: MKKAKQSRKNRDISQVKKGNVAKDHQKYSDSAVQKQDKEETRTVMPIPEGNITDKDVDNVLANLDEIFAPGQLNHSDQINEKENSQQITGKQSSSLKTGSATQETETFQSKESLTLPNKKTSENKVSDVLEVKVKKTNNWVDDGEAENWQLPDLTEKLTNNNDEETKELPLSSLAEKTNSESEMKHSVKETEELLKQEKKLSSKYDKTKSQTKASSKEKDVTANLNQKRQQHYKKTNRLAKKISTVLITFILILLLGTGLFGYYYVSSAIKPLDAHSTKYIQVEIPSGSGNRMIGKILEKAGVIKNATVFNFYTKFRNYSNLQSGYYNLQKSMSLDDIAKTLKNGGTTTPQAPVLGKVVIPEGYTIKQISKAITSNANTKKKTDKTPFTAKEFLKTVKDKAFIEKMVKKYPRLLGSLPDASKVTYQLEGYLFPATYSYGEKTSIEDLIDNMLAAMDTNMQSYYDTIESQGKTVNDILTLASLVEKEGATDDDRKKIAGIFYNRINQDMPLQSNIAILYAMGKLGEKTSLKEDATINTKIDSPYNVYTNKGLMPGAVDNPSLSAIKAAVEPESTDDLYFVADVTTGEVHYAKTYEEHSANVEKYVNKKVASSSDS
B7: FtsK (protein, UniProt Q8DSX7 1-787)
chain: MAKTKNKRKGRKTRRPTKAELEKQRAIKRMVFALFMAFVLFFAIFKLGRVGVTVYNIIRLMVGSLAYPFIFAALIYLFATKWLKKHDGLVGGFVITMLGMLLEWQAYLFSLATMKDQSVIKGTLVIVFSDLSKFRVANFAGGGFLGALLYMPVAFLFSNIGSFLIGGLFLLLGLFLMSPWDVYDVMNFFKDSYAKWQVKRQENREKRFAQKEEARLLAQQAVQEAQESATFDHGLNAAIDLETGEVLDQAQTIDLDDFDGQVHKEPEIIGYQSDPEGEALEAEVPAAEQTSQLPKEEDMSDESLEVDFTPKTTLHYKLPGIDLFAKDKPKNQSKEKRLVRDNIKILEETFTSFGIKANVERAEIGPSVTKYEVKPAVGVRVNRISNLADDLALALAAQDVRIEAPIPGKSLVGIEVPNSEVATVTFRELWEQAKASPDKLLEVPLGKAVNGSVRSFDLAKMPHILVAGSTGSGKSVAVNGIIASILMKARPDQIKFMMIDPKMVELSVYNDIPHLLIPVVTNPRKASKALQKVVDEMENRYELFSHFGVRNIAGYNAKVEEFNRHSETKHIPLPLLVVIVDELADLMMVASKEVEDAIIRLGQKARAAGIHMILATQRPSVDVISGLIKANVPSRIAFAVSSGTDSRTILDENGAEKLLGRGDMLFKPIDENHPVRLQGSFISDDDVERIVSFIKEQAEADYDESFDPGEVSEDDNSNGNGGNSEGDPLFEDAKALVLETQKASASMLQRRLSVGFNRATRLMEELEEAGVIGPAEGTKPRKVLQSN
B8: SMU_1412c (protein, UniProt Q8DTD8 1-842)
chain: MLELKHITKVYETAGIKRMALENVSVNFRANEFVAVLGQSGSGKTTLLNIIGGLDQYTTGDLLINGKSTKDFKDKDWDSYRNNTIGFVFQSYNLISHQTALANVELALTLSGVSKAERRKRALDALKRVGLEDEINKKPNQMSGGQMQRVAIARALVNNPDILLADEPTGALDSETSLQIMDLLKEIAQERLVIMVTHNPDLAEKYSNRIIKVLDGHIINDSNPYTDDEIRKATVDFKKTKMSFTTALSLSFNNLLTKKGRTLLTAFAGSIGIIGIALILSLSNGVQKYIAKTQEDTLVAYPLSIEKSSNKNFIGLLAANSNENKKSDKKKTNKKIGTNSILKNMISTQVVDNDLASFKTYIKKHQKKFAAVTKDIQYSYKITPRIYQSDTSKGVKAVNPNTLSKDLKDTSTSIQTVVSNLDIWQELSSNEKMLSSQYQVISGHLPKQYNEVVLMADENNKIDDYVLYSLGIKDAKQLNSKTIKKVKASSYHYKDLIGRTYKLVINSDLYQKEGNAWIDRSDNDAYMKQVINAAENIKIVGIVKPQEGTTSESSSAGVGYSHDLTDYLAKKIKSSTIAKEQLANKKLNVFTGQSFSSGNKTFSSDNLSVQQQASMASMSAEELADYVNRYNENANATYKDNLEKIGIIDNNNPETIHFYASSFKDKEALKDLISDYNKKVKKDKHKSRVIRYTDTVGLMMSSVTTMINAVTYILIGFVAISLIVSSIMIGIITYISVLERTKEIGVLRAMGASKRDVTRIFTAETIIEGAIAGVLGILITLLLNIAITLIVKNWLNINHISSLPIWSAIVLIAISIVLTVFAGILPSRVAAKKDPVEALRTE
B9: SMU_502 (protein, UniProt Q8DVI6 1-566)
chain: MASKEKWTELFEKVIGRKPTPQEFLEGKKGFFDLKEIKKIAGVDKADDLQETSSDIKQAILGNSITAVKPDNESSKEETKSTDKPVSTEVDKSPKQLWVEAFEKTIGRQPTPEEFISGRNQDFDLAKISQLVEKESVSKTSNLAKAPFTKGKKILITLGLVCLLALVVGYIYGNQYFSREAVAQRYLKVANSNFDKALEFEVWSDTEKPIKKSELTYRNSKETRTVTMDKLTSDASQMKKVGNKFLIFPDWRVAIKPASAKISINTKGLELFINDKRVTKADSDSFSQTISRLYPGTYNFVAKGNISGQKVEVSSEEKLTNHSTINLNVKYLSFKVNSNLTDGDLYVGSRKIGTLKDGKYNVTKLAVTDTSKIYVQKSFSGKATLKSEVQSIEDVYDGDTISLDAKGVLDRDTADSLITQAYYKLDSYASSHTTPDDLDDIFTSGNHNNFYLDVKNTIDTNTTNAKNRSADSINFSDVDVTKVTQTSPTTYAVEFTVVYDFYYSYSSEHKSSGSITQKLSWSALVEYVGDNKKNSSDSYSYNSYEDYRITSDNGKSSVLSTKNTVD
B10: KhpB (protein, UniProt Q8DVX2 1-322)
chain: MVLFTGKTVEEAIESGLKQMGISRMKAHIRVISREKKGFLGFGRKLARVEIEGINEKTAHKADQKAVRGVPDSINKQNAPVSSSAEDTVALNHLSKTIKKLEKEDGQPLDKEIKEQVLEHKISAQEMLEQNALTTKTSAATASSEAFNQKGKQTFEDFVADAFDEVDNGADIAVASKEVSQYIQKIIYEMDLETSIETSHNRRQINLQIETPEAGRVIGYHGKVLKSLQLLAQNFLHDHYSKHFSVTLNVHDYMEHRTKILIDFAHKIAKRVLDSGKAYQMDPMSNSERKVIHKTITGIEGVESYSEGNDPNRYVVIASKGN

Results are given in words; binding and its absence hold for the method and conditions named. Binding seen in cells or lysates may run through a third protein. Here binding means that the protein was enriched with, or labelled near, the bait; the list need not be complete.

This assay has as its target DacA-FLAG (Streptococcus mutans UA159). As to the kind of experiment: affinity purification with mass spectrometry; crosslinked; cells in PBS with 1% formaldehyde 20 min at room temperature, quenched with 0.125 M glycine, then lysate on anti-FLAG M2 affinity gel 3 h at 4°C, FLAG peptide elution; UA159 as no-FLAG control; hits at least twofold enriched with spectral counts >10.
In the case of B1, the binding result is “binds”.
As for B2, the binding entry is recorded as “binds”.
For the molecule B3, the binding result is listed as “binds”.
On to B4, for which the binding entry was “binds”.
Consider B5, for which the binding result is listed as “binds”.
With B6, the binding result was “binds”.
For B7, the binding result is “binds”.
As for B8, the entry is “binds”.
With B9, the binding result was “binds”.
Turning to B10, the binding result is listed as “binds”.
